Results are given in words; binding and its absence hold for the method and conditions named. In cells and extracts the contact can be indirect. These calls come from enrichment with a bait or labelling near it, and not all partners need be listed. Where a sequence is shown, tags or fusion partners need not be part of it.

Chains of the proteins cited; added tags and fusions are not shown.
UniProt P25694: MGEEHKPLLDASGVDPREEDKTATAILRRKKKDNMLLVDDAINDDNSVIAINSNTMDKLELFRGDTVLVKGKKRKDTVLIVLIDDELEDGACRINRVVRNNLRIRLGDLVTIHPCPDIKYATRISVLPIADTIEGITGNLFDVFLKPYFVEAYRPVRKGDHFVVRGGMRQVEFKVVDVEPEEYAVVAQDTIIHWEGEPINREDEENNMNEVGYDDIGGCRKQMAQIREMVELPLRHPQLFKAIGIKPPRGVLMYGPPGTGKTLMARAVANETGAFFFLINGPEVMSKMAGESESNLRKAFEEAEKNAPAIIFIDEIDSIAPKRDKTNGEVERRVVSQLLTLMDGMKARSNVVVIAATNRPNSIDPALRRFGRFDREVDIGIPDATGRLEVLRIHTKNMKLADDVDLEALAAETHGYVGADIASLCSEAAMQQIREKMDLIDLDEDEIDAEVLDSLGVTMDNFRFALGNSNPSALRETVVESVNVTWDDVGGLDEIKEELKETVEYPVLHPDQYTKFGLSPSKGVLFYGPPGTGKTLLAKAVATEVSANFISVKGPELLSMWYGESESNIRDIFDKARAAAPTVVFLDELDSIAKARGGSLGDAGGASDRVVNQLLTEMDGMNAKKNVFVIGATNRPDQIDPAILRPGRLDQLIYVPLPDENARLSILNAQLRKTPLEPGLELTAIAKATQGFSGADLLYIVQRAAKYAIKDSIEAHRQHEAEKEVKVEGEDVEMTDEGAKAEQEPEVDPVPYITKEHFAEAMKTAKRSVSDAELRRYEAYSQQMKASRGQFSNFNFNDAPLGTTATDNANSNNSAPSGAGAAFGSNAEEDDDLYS

The target of this assay is T1, Wss1-Myc13 (chromosomally tagged) (S. cerevisiae) (UniProt P38838).
T1 sequence: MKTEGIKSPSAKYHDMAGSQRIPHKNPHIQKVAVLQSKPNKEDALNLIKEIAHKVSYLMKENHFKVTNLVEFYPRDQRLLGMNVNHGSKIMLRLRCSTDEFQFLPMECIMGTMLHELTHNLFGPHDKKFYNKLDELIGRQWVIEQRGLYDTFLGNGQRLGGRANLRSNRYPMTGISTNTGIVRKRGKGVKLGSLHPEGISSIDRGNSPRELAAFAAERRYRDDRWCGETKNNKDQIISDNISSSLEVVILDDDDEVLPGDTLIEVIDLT
Description: affinity purification with mass spectrometry; Wss1-Myc13 from the endogenous locus; lysate on anti-c-Myc agarose, 1 hr at 4°C; parental strain as control; LC-MS/MS.

In the case of “Cdc48 (endogenous) (from UniProt P25694 1-835) (enzyme)”, the binding result is “binds”.
